PubChem BioAssay AID504804, Drosophila RNAi Screening Center – 2011
Test: 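dsRNAs that improve Kc cell survival under doxorubicin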 (primary screen). Cells: Drosophila Kc cells. Knock-down reagent: long dsRNA against Drosophila genes, 0.5 µg dsRNA per well. Timing: 96 h (48 h knock-down, then 48 h drug). Challenge: doxorubicin 5 µg/ml for 48 h, added 48 h after dsRNA. Measurement: 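Viability measured as cellular ATP by luminescence after 48 h knock-down then 48 h doxorubicin at 5 µg/ml; unnormalised plate counts for each replicate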. Scale: raw ATP luminescence: higher = more viable cells, protection from doxorubicin. Hit rule: 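Active when both duplicate wells lie at least 2 SD above the plate mean and protection is confirmed by rescreening and independent dsRNAs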.
The deposit covers about 19,000 reagents; shown is a random part of those with a known target gene and a result. Of all reagents, 47 (0.25%) are marked active. 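Signals are raw, not normalised; exact z-scores behind calls not deposited; actives needed confirmation, so some wells reaching 2 SD are inactive.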

target,DRSC id,"raw ATP luminescence, replicate 1","raw ATP luminescence, replicate 2",Outcome
CG8301 (GeneID 41160),DRSC16405,58270,54273,inactive
Bap111 (GeneID 31846),DRSC18419,1.92e5,2.56e5,inactive
brv3 (GeneID 31246),DRSC18657,40420,42030,inactive
dpr20 (GeneID 38101),DRSC08265,59680,62097,inactive
CG10344 (GeneID 37565),DRSC04066,49320,44243,inactive
Syt1 (GeneID 33473),DRSC00156,2.67e5,2.69e5,inactive
Syt1 (GeneID 33473),DRSC00157,2.94e5,2.89e5,inactive
Syt1 (GeneID 33473),DRSC00158,2.77e5,2.96e5,inactive
Syt1 (GeneID 33473),DRSC00840,1.09e5,61007,inactive
CG12920 (GeneID 36052),DRSC06234,43487,73623,inactive
Arl5 (GeneID 38931),DRSC10785,32597,34603,inactive
CG43980 (GeneID 2768995),DRSC11500,69173,62470,inactive
CG43980 (GeneID 2768995),DRSC11646,70700,62987,inactive
CG5174 (GeneID 37117),DRSC06920,60300,61793,inactive
Mf (GeneID 41824),DRSC16120,1.15e5,66460,inactive
CG1421 (GeneID 35432),DRSC03707,62090,62783,inactive
CG40006 (GeneID 3355123),DRSC03787,85403,67350,inactive
CG40006 (GeneID 3355123),DRSC03809,69020,61327,inactive
CG40006 (GeneID 3355123),DRSC03814,74170,61667,inactive
CG40006 (GeneID 3355123),DRSC03817,68807,62120,inactive
alpha-Est5 (GeneID 40905),DRSC12617,49780,30583,inactive
CG14212 (GeneID 32964),DRSC19568,3.91e5,3.31e5,inactive

Next part (4 carried over from the part before).
target,DRSC id,"raw ATP luminescence, replicate 1","raw ATP luminescence, replicate 2",Outcome
CG40006 (GeneID 3355123),DRSC03814,74170,61667,inactive
CG40006 (GeneID 3355123),DRSC03817,68807,62120,inactive
alpha-Est5 (GeneID 40905),DRSC12617,49780,30583,inactive
CG14212 (GeneID 32964),DRSC19568,3.91e5,3.31e5,inactive
CG17192 (GeneID 43248),DRSC15186,78170,70530,inactive
CG8630 (GeneID 41629),DRSC16441,44220,38340,inactive
SkpE (GeneID 32997),DRSC19431,3.16e5,3.02e5,inactive
ect (GeneID 44135),DRSC10675,75907,57947,inactive
ect (GeneID 44135),DRSC11343,56427,45623,inactive
TfIIFbeta (GeneID 41290),DRSC16884,49060,49163,inactive
Fili (GeneID 5740472),DRSC03907,72663,60977,inactive
Fili (GeneID 5740472),DRSC04132,60183,46760,inactive
Fili (GeneID 5740472),DRSC04445,65123,56793,inactive
CG31126 (GeneID 326121),DRSC14623,60580,43100,inactive
CG17187 (GeneID 41351),DRSC15181,54523,51590,inactive
CG15155 (GeneID 35087),DRSC02456,52090,61883,inactive
